Data from PubChem BioAssay AID504834 (National Center for Advancing Translational Sciences (NCATS), 2011).
The campaign covered roughly 320,000 compounds. About 22,000 (6.9%) were called active. Inconclusive results, whose numbers are uncertain, are shown with a selection of clear calls. The call rests on the fitted dose curve; in most records, active means well fitted inhibition curve with a large enough effect; inconclusive means small, poorly fitted or top-dose-only effect, or another doubt; inactive means no such curve, though single readings can be large or run the other way. A potency beside an inconclusive call is a rough fit, not a confirmed value.

Assay: Primary qHTS for delayed death inhibitors of the malarial parasite plastid, 96 hour incubation
Settings: P. falciparum luciferase reporter growth; series mostly up to 28.7 µM
Summary of the method: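 Plates of compound plus infected erythrocytes (2% hematocrit, 0.05% parasitemia final) incubate 96 hours, 37 C, 5% CO2. Detection reagent added; reduced luminescence from the parasites' luciferase reporter flags inhibition.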
Potency means the concentration at half of the fitted maximal effect.

Row | Compound | Potency
1 | COc1cc(NC(=O)COC(=O)/C=C/c2ccccc2Cl)cc(OC)c1 | inactive
2 | Cn1nc(C(=O)NNC(=O)c2ccccc2Br)c2ccccc2c1=O | inactive
3 | Cc1ccc(/C(N)=N/OC(=O)c2ccc(C)cc2Cl)cc1 | inactive
4 | CCCCCCCNC(=O)C1(CC2CC(c3ccccc3)=NO2)CCN(C(=O)c2ccccc2)CC1 (stereo unspecified) | active: 9.28 µM
5 | O=C(NCCCO)C(=O)NCC(c1ccc2c(c1)OCO2)N1CCN(c2ccc(F)cc2)CC1 (stereo unspecified) | inactive
6 | Fc1ccc(-c2nc(-c3cccs3)[nH]c2-c2ccc(F)cc2)cc1 | inconclusive: 18.5 µM [inhibitor, single point]
7 | CCn1c(SCC(=O)N2CCC(C)CC2)nnc1-c1ccco1 | inactive
8 | O=C(O)CCc1nc2cc3ccccc3cc2[nH]1 | inactive
9 | CCc1ccc(S(=O)(=O)Nc2nnc(N)s2)cc1 | inconclusive: 18.5 µM [inhibitor, single point]
10 | Cc1ccccc1CCNC(=O)CCn1nc(C)c2c(C)n(-c3ccccc3)nc2c1=O | inconclusive: 14.7 µM [inhibitor, single point]
11 | COc1ccc(S(=O)(=O)N2CCN(C(=O)c3cc(C)oc3C)CC2)cc1OC | inconclusive: 18.5 µM [inhibitor, partial curve, poor fit]
12 | CNC(=O)c1ccc(Nc2nc(-c3ccccc3)nc3ccccc23)cc1 | inconclusive: 11.7 µM [inhibitor, single point]
13 | COCCn1c(SCC(=O)N2CC(C)OC(C)C2)nc2c([nH]c3ccccc32)c1=O (stereo unspecified) | inconclusive: 0.738 µM [inhibitor, full curve, poor fit]
14 | COCCNC(=O)c1cn(C)c2ccccc2c1=O | inconclusive: 13.1 µM [inhibitor, single point]
15 | CC1C(=O)N2CCCc3cc(NC(=O)C(=O)NCc4ccc5c(c4)OCO5)cc1c32 (stereo unspecified) | active: 7.38 µM
16 | CN(Cc1ccon1)Cc1cn(Cc2ccccc2)nc1-c1ccc2c(c1)OCO2 | inactive
17 | Cc1ccc(S(=O)(=O)N(C)c2ccc(OCC(=O)OCc3c(C)noc3C)cc2)cc1 | inconclusive: 14.7 µM [inhibitor, partial curve, poor fit]
18 | Clc1nc2sccn2c1/C=N/n1cnc2ccccc21 | inactive
19 | Cn1ncc(Cl)c1C(=O)N1CCN(S(=O)(=O)c2cccs2)CC1 | inconclusive: 10.4 µM [inhibitor, partial curve, poor fit]
20 | CCOC(=O)c1ccc(Nc2cc(C)nc(-c3ccccc3O)n2)cc1 | inactive
21 | COC(=O)c1sccc1NC(=O)c1c(Cl)cnn1C | inconclusive: 10.4 µM [inhibitor, single point]

Reprinted at random: two entries already listed, in no set order.
Row | Compound | Potency
11 | COc1ccc(S(=O)(=O)N2CCN(C(=O)c3cc(C)oc3C)CC2)cc1OC | inconclusive: 18.5 µM [inhibitor, partial curve, poor fit]
19 | Cn1ncc(Cl)c1C(=O)N1CCN(S(=O)(=O)c2cccs2)CC1 | inconclusive: 10.4 µM [inhibitor, partial curve, poor fit]
